In paper PMC11391272:
No constants are given. Whether binding was seen depends on the method and setting. Binding seen in cells or lysates may run through a third protein. Some binding calls cover weakened binding; strength is not graded here. One block for each binder: values may come before it.

Columns and labels:
[1] = biological target: T1, YTH N6-methyladenosine RNA binding protein 2 (YTHDF2), endogenous (human (endogenous in the paper's human cell lines; line not stated for the co-IP)) (UniProt Q9Y5A9); test: co-IP; endogenous proteins; POP1 precipitated with anti-POP1 antibody and protein G magnetic beads, or YTHDF2 precipitated; lysis buffer 150 mM NaCl, 10 mM HEPES, 1% NP-40, pH 7.4; 4 °C overnight; Western blot; POP1-YTHDF2 also tested after RIDA knock-down or STM2457 treatment (binding significantly reduced)
T1 sequence: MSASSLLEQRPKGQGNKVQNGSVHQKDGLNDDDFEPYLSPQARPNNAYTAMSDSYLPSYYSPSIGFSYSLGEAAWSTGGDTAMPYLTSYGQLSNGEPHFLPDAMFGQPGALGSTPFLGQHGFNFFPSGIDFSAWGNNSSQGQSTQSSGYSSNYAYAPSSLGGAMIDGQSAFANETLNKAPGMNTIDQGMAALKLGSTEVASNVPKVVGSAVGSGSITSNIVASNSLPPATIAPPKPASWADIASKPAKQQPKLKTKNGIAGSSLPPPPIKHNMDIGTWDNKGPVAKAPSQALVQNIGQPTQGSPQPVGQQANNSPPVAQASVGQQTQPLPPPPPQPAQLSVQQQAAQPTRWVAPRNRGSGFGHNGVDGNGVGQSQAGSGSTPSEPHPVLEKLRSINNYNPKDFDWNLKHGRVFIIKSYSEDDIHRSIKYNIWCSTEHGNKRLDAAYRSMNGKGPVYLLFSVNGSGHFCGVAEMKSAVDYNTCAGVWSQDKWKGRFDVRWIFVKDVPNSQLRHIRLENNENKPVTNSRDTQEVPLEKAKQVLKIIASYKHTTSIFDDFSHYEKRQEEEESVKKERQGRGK

[2] = biological target: T2, labeled POP1 (exogenous, transfected) (UniProt Q99575); test: co-IP; exogenous: labeled POP1, YTHDF2 and RIDA transfected; the labels detected after enrichment; anti-Flag magnetic beads named in the methods; lysis buffer 150 mM NaCl, 10 mM HEPES, 1% NP-40, pH 7.4; Western blot
T2 sequence: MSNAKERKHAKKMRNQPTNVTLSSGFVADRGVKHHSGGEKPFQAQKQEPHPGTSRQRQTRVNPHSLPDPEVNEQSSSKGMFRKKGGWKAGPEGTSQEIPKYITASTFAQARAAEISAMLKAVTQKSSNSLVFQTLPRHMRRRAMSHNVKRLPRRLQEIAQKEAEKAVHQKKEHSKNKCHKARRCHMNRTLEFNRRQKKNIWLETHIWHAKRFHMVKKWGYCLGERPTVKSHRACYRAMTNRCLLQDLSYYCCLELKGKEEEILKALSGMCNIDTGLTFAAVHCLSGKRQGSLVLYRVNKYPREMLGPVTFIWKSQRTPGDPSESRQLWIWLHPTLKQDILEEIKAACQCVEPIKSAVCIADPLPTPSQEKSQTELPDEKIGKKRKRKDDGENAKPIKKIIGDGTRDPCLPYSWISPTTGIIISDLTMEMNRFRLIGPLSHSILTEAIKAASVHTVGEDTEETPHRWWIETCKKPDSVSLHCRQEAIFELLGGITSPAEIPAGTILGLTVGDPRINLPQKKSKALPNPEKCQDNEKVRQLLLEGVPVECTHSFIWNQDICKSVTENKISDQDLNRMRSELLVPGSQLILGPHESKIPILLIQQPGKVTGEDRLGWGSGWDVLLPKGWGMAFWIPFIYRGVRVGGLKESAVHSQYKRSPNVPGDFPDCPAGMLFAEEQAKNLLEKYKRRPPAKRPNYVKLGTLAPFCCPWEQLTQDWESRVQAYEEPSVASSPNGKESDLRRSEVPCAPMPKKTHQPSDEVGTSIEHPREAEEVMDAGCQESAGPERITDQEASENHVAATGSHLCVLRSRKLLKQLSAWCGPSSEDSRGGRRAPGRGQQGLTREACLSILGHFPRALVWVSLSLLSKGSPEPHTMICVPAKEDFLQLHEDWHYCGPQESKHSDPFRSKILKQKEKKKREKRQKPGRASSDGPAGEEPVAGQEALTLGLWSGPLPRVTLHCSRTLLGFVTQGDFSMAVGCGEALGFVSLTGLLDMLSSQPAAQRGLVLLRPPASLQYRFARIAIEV

binding [1]: binds
B1: RIDA, endogenous (protein, UniProt P52758 1-137)
chain: MSSLIRRVISTAKAPGAIGPYSQAVLVDRTIYISGQIGMDPSSGQLVSGGVAEEAKQALKNMGEILKAAGCDFTNVVKTTVLLADINDFNTVNEIYKQYFKSNFPARAAYQVAALPKGSRIEIEAVAIQGPLTTASL

binding [2]: binds
B2: labeled RIDA (exogenous, transfected) (protein, UniProt P52758 1-137)
chain: B1 chain

binding [1]: binds
B3: Processing of precursors 1 (POP1), endogenous (protein, UniProt Q99575 1-1024)
chain: T2 sequence
